Taken from: PubChem BioAssay AID1259308 (NCATS, 2017)
Purpose: 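Knock-downs that increase output of a recombinant reporter protein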 (primary screen). Cell system: human HEK293 embryonic kidney cells stably expressing firefly luciferase (HEK-CMV-Luc2-Hygro). Reagent: single siRNA against human genes, 0.8 pmol siRNA per well. Duration: 72 h. Measurement: 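Luciferase light (ONE-Glo) measured on one replicate plate set and viability (CellTiter-Glo) on the other, scaled to a negative control siRNA, with robust z-scores and luciferase per cell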. Reading the numbers: total luciferase, z-score and total luciferase, % of control: higher = more reporter protein produced; luciferase per cell, z-score: higher = more reporter output per viable cell; viable cells, % of control: higher = more viable cells. Call rule: 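An siRNA counts as active if its total luciferase robust z-score exceeds 3; genes with two or more such siRNAs out of three were retested with fresh siRNAs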. Calls: active = raised luciferase; inactive = no rise.
Shown is an unselected part of about 59,000 reagents tested. About 1,510 of all reagents (2.6%) count as active. 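Calls use total luciferase alone and ignore viability, so some active siRNAs may act by altering cell number.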 Unmarked entries are inactive. The numbers tell different reagents against one gene apart. Reagent sequences are not shown.

gene symbol | reagent | total luciferase, z-score | total luciferase, % of control | luciferase per cell, z-score | viable cells, % of control
RAB29 | 1 | -0.0199 | 81.5 | -0.393 | 101
RAB29 | 2 | -0.0216 | 81.5 | 0.0327 | 90.2
RAB29 | 3 | -0.937 | 63.2 | -1.33 | 100
KPNB1 | 1 | 2.34 | 128 | 2.85 | 67.7
KPNB1 | 2 | 1.21 | 106 | 2.1 | 68.2
KPNB1 | 3 | 2.54 | 132 | 2.37 | 79.2
RPL17 | 1 | -1.57 | 50.7 | -0.982 | 73.4
RPL17 | 2 | -2.77 | 26.8 | -2.51 | 58.1
RPL17 | 3 | -2.96 | 23.1 | -2.04 | 44.2
RPS28P7 | 1 | -2.5 | 32.2 | -2.09 | 62.2
RPS28P7 | 2 | -2.75 | 27.2 | -1.88 | 50
RPS28P7 | 3 | -2.81 | 25.9 | -2.67 | 58.5
NCOA4P4 | 1 | 1.33 | 108 | 1.65 | 78.5
NCOA4P4 | 2 | -2.14 | 39.2 | -0.654 | 52.1
NCOA4P4 | 3 | -0.00144 | 81.9 | -0.633 | 108
MRPL16 | 1 | -1.29 | 56.3 | -1.56 | 94.8
MRPL16 | 2 | 1.23 | 106 | 1.67 | 76.5
MRPL16 | 3 | -1.32 | 55.6 | -1.28 | 87.1
SBNO1 | 1 | -0.057 | 80.8 | 1.44 | 61.8
SBNO1 | 2 | 2.3 | 128 | 1.98 | 84.6
SBNO1 | 3 | 1.33 | 108 | 0.868 | 96.3
SLC36A1 | 1 | -2.33 | 35.5 | -2.22 | 71.1
SLC36A1 | 2 | 0.739 | 96.6 | 0.697 | 89.8
SLC36A1 | 3 | -0.147 | 79 | 0.765 | 72.2
RPL23AP43 | 1 | 0.126 | 84.4 | 0.614 | 80.2
RPL23AP43 | 2 | -0.57 | 70.6 | -1.1 | 105
RPL23AP43 | 3 | -1.71 | 47.8 | -0.879 | 67.4
SPSB4 | 1 | 0.875 | 99.3 | 0.424 | 99.2
SPSB4 | 2 | -0.968 | 62.6 | -1.29 | 98.3
SPSB4 | 3 | -1.06 | 60.9 | -0.449 | 76.6
METTL1 | 1 | 0.629 | 94.4 | 0.0619 | 104
METTL1 | 2 | 0.798 | 97.8 | 1.38 | 75.9
METTL1 | 3 | -0.283 | 76.3 | 0.231 | 80.2
FBN1 | 1 | 0.142 | 84.7 | 0.0206 | 94.1
FBN1 | 2 | 0.377 | 89.4 | -0.0203 | 100
FBN1 | 3 | -1.8 | 46 | -1.67 | 79.7
RNF121 | 1 | -1.15 | 59.1 | -0.769 | 80.8
RNF121 | 2 | 0.536 | 92.5 | 0.717 | 85.6
RNF121 | 3 | -0.15 | 78.9 | 1.06 | 66.7
TSR2 | 1 | -0.876 | 64.5 | -1.21 | 98.9
TSR2 | 2 | -0.962 | 62.7 | -1.03 | 92.1
TSR2 | 3 | 0.178 | 85.4 | 1.12 | 71.1
CAPZA2 | 1 | -1 | 62 | -1.43 | 101
CAPZA2 | 2 | -1.06 | 60.9 | -1.29 | 95.5
CAPZA2 | 3 | -0.484 | 72.3 | -1.44 | 118
TPRN | 1 | -1.19 | 58.3 | -1.01 | 84.9
TPRN | 2 | 0.288 | 87.6 | 0.353 | 89.2
TPRN | 3 | -1.35 | 55 | -0.995 | 79.9
RBM22P1 | 1 | -0.398 | 74 | -0.433 | 92.6
RBM22P1 | 2 | -0.418 | 73.6 | -0.537 | 94.7
RBM22P1 | 3 | -0.261 | 76.7 | -0.217 | 90.7
MMAA | 1 | -0.014 | 81.6 | -0.571 | 106
MMAA | 2 | 0.359 | 89 | 0.215 | 94
MMAA | 3 | 2.24 | 127 | 1.36 | 98.9
SLC35F3 | 1 | -0.578 | 70.4 | -0.172 | 82.3
SLC35F3 | 2 | 1.71 | 116 | 1.48 | 87.6
SLC35F3 | 3 | 0.782 | 97.4 | 1.48 | 73.7

Ordered by “viable cells, % of control” (high to low): 5 of the entries above.
gene symbol | reagent | total luciferase, z-score | total luciferase, % of control | luciferase per cell, z-score | viable cells, % of control
MMAA | 1 | -0.014 | 81.6 | -0.571 | 106
MMAA | 3 | 2.24 | 127 | 1.36 | 98.9
MMAA | 2 | 0.359 | 89 | 0.215 | 94
RBM22P1 | 3 | -0.261 | 76.7 | -0.217 | 90.7
SLC35F3 | 1 | -0.578 | 70.4 | -0.172 | 82.3
